# Cleaved PARP after 72 h of treatment

Data from the primary screen of doi:10.1371/journal.pone.0140310, rounded.

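Human melanoma cell lines in 1,536-well plates were treated with a pair of drugs for 72 h, then fixed, stained and imaged. Values are the share of nuclei positive for cleaved PARP as a percentage of the same share in the DMSO control: 100 is the control level, higher means more apoptosis. Concentrations were fixed for each drug; these are the higher of two levels. The file gives one value for each pair and line, without errors, so small differences may be noise. Basal and induced levels differ widely between cell lines.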
An unselected part of the screen is shown.

All values are for the listed drug together with PF-04217903 (5000 nM): OCCn1cc(-c2cnc3nnn(Cc4ccc5ncccc5c4)c3n2)cn1

Drugs:
everolimus: CO[C@H]1C[C@@H]2CC[C@@H](C)[C@@](O)(O2)C(=O)C(=O)N2CCCC[C@H]2C(=O)O[C@H]([C@H](C)C[C@@H]2CC[C@@H](OCCO)[C@H](OC)C2)CC(=O)[C@H](C)/C=C(\C)[C@@H](O)[C@@H](OC)C(=O)[C@H](C)C[C@H](C)/C=C/C=C/C=C/1C at 100 nM
nilotinib: Cc1cn(-c2cc(NC(=O)c3ccc(C)c(Nc4nccc(-c5cccnc5)n4)c3)cc(C(F)(F)F)c2)cn1 at 1000 nM
LFM-A13: C/C(O)=C(\C#N)C(=O)Nc1cc(Br)ccc1Br at 10000 nM
pioglitazone: CCc1ccc(CCOc2ccc(CC3SC(=O)NC3=O)cc2)nc1 (configuration not stated) at 10000 nM
YM155: COCC[n+]1c2c(n(Cc3cnccn3)c1C)C(=O)c1ccccc1C2=O at 2 nM
PF-562271: CN(c1ncccc1CNc1nc(Nc2ccc3c(c2)CC(=O)N3)ncc1C(F)(F)F)S(C)(=O)=O at 400 nM
MK-2206: NC1(c2ccc(-c3nc4ccn5c(=O)[nH]nc5c4cc3-c3ccccc3)cc2)CCC1 at 2000 nM
AZD7762: NC(=O)Nc1cc(-c2cccc(F)c2)sc1C(=O)N[C@H]1CCCNC1 at 100 nM
TCS401: O=C(O)C(=O)Nc1sc2c(c1C(=O)O)CCNC2 at 8330 nM
AS-252424: O=C1NC(=O)/C(=C/c2ccc(-c3ccc(F)cc3O)o2)S1 at 5000 nM
lestaurtinib: C[C@]12O[C@H](C[C@]1(O)CO)n1c3ccccc3c3c4c(c5c6ccccc6n2c5c31)CNC4=O at 20 nM
cisplatin: N.N.[Cl][Pt][Cl] at 8000 nM
GW9662: O=C(Nc1ccccc1)c1cc([N+](=O)[O-])ccc1Cl at 10000 nM
erlotinib: C#Cc1cccc(Nc2ncnc3cc(OCCOC)c(OCCOC)cc23)c1 at 4000 nM
enzastaurin: Cn1cc(C2=C(c3cn(C4CCN(Cc5ccccn5)CC4)c4ccccc34)C(=O)NC2=O)c2ccccc21 at 4000 nM
GSK0660: COC(=O)c1sccc1S(=O)(=O)Nc1ccc(Nc2ccccc2)cc1OC at 5000 nM
bortezomib: CC(C)C[C@H](NC(=O)[C@H](Cc1ccccc1)NC(=O)c1cnccn1)B(O)O at 5 nM
selumetinib: Cn1cnc2c(F)c(Nc3ccc(Br)cc3Cl)c(C(=O)NOCCO)cc21 at 75 nM
STA-4783: CN(NC(=O)CC(=O)NN(C)C(=S)c1ccccc1)C(=S)c1ccccc1 at 30 nM
decitabine: Nc1ncn([C@H]2C[C@H](O)[C@@H](CO)O2)c(=O)n1 at 500 nM
ruxolitinib: N#CC[C@H](C1CCCC1)n1cc(-c2ncnc3[nH]ccc23)cn1 at 5000 nM
docetaxel: CC(=O)O[C@@]12CO[C@@H]1C[C@H](O)[C@@]1(C)C(=O)[C@H](O)C3=C(C)[C@@H](OC(=O)[C@H](O)[C@@H](NC(=O)OC(C)(C)C)c4ccccc4)C[C@@](O)([C@@H](OC(=O)c4ccccc4)[C@H]21)C3(C)C at 0.5 nM
indole-3-carbinol: OCc1c[nH]c2ccccc12 at 4000 nM
veliparib: C[C@]1(c2nc3c(C(N)=O)cccc3[nH]2)CCCN1 at 7000 nM
FK866: O=C(/C=C/c1cccnc1)NCCCCC1CCN(C(=O)c2ccccc2)CC1 at 50 nM
T0901317: O=S(=O)(c1ccccc1)N(CC(F)(F)F)c1ccc(C(O)(C(F)(F)F)C(F)(F)F)cc1 at 7000 nM
NVP-BEZ235: Cn1c(=O)n(-c2ccc(C(C)(C)C#N)cc2)c2c3cc(-c4cnc5ccccc5c4)ccc3ncc21 at 20 nM
darinaparsin: C[As](C)SC[C@H](NC(=O)CC[C@H](N)C(=O)O)C(=O)NCC(=O)O at 2000 nM
NVP-TAE684: COc1cc(N2CCC(N3CCN(C)CC3)CC2)ccc1Nc1ncc(Cl)c(Nc2ccccc2S(=O)(=O)C(C)C)n1 at 400 nM
dasatinib: Cc1nc(Nc2ncc(C(=O)Nc3c(C)cccc3Cl)s2)cc(N2CCN(CCO)CC2)n1 at 20 nM
JZL184: O=C(Oc1ccc([N+](=O)[O-])cc1)N1CCC(C(O)(c2ccc3c(c2)OCO3)c2ccc3c(c2)OCO3)CC1 at 5000 nM
CX-4945: O=C(O)c1ccc2c(c1)nc(Nc1cccc(Cl)c1)c1ccncc12 at 2000 nM
vismodegib: CS(=O)(=O)c1ccc(C(=O)Nc2ccc(Cl)c(-c3ccccn3)c2)c(Cl)c1 at 5000 nM
OSI-906: C[C@]1(O)C[C@@H](c2nc(-c3ccc4ccc(-c5ccccc5)nc4c3)c3c(N)nccn32)C1 at 2000 nM
GW0742: Cc1cc(SCc2sc(-c3ccc(C(F)(F)F)c(F)c3)nc2C)ccc1OCC(=O)O at 10000 nM

{"second drug": "MK-2206", "UACC-62": 139, "WM1745": 98.6, "SK-MEL-30": 69.6, "IPC-298": 60.8, "G-361": 54.6}
{"second drug": "dasatinib", "UACC-62": 133, "WM1745": 153, "SK-MEL-30": 67.2, "IPC-298": 24.2, "G-361": 67.3}
{"second drug": "CX-4945", "UACC-62": 187, "WM1745": 96.2, "SK-MEL-30": 86.6, "IPC-298": 98.5, "G-361": 351}
{"second drug": "veliparib", "UACC-62": 186, "WM1745": 96.4, "SK-MEL-30": 76.2, "IPC-298": 83.6, "G-361": 136}
{"second drug": "lestaurtinib", "UACC-62": 42.2, "WM1745": 97.3, "SK-MEL-30": 140, "IPC-298": 158, "G-361": 90.0}
{"second drug": "pioglitazone", "UACC-62": 167, "WM1745": 124, "SK-MEL-30": 251, "IPC-298": 81.4, "G-361": 31.1}
{"second drug": "PF-562271", "UACC-62": 160, "WM1745": 158, "SK-MEL-30": 56.8, "IPC-298": 110, "G-361": 191}
{"second drug": "ruxolitinib", "UACC-62": 105, "WM1745": 102, "SK-MEL-30": 123, "IPC-298": 76.2, "G-361": 182}
{"second drug": "OSI-906", "UACC-62": 110, "WM1745": 136, "SK-MEL-30": 72.3, "IPC-298": 137, "G-361": 56.2}
{"second drug": "FK866", "UACC-62": 117, "WM1745": 170, "SK-MEL-30": 113, "IPC-298": 233, "G-361": 6320}
{"second drug": "selumetinib", "UACC-62": 128, "WM1745": 179, "SK-MEL-30": 182, "IPC-298": 128, "G-361": 243}
{"second drug": "STA-4783", "UACC-62": 174, "WM1745": 308, "SK-MEL-30": 264, "IPC-298": 72.9, "G-361": 427}
{"second drug": "bortezomib", "UACC-62": 187, "WM1745": 657, "SK-MEL-30": 1170, "IPC-298": 7300, "G-361": 11200}
{"second drug": "everolimus", "UACC-62": 206, "WM1745": 104, "SK-MEL-30": 104, "IPC-298": 184, "G-361": 215}
{"second drug": "GSK0660", "UACC-62": 122, "WM1745": 116, "SK-MEL-30": 60.8, "IPC-298": 138, "G-361": 143}
{"second drug": "enzastaurin", "UACC-62": 138, "WM1745": 131, "SK-MEL-30": 46.3, "IPC-298": 60.0, "G-361": 89.8}
{"second drug": "JZL184", "UACC-62": 276, "WM1745": 92.8, "SK-MEL-30": 76.4, "IPC-298": 77.3, "G-361": 35.5}
{"second drug": "vismodegib", "UACC-62": 82.4, "WM1745": 81.0, "SK-MEL-30": 66.3, "IPC-298": 146, "G-361": 108}
{"second drug": "GW9662", "UACC-62": 314, "WM1745": 141, "SK-MEL-30": 111, "IPC-298": 49.3, "G-361": 120}
{"second drug": "darinaparsin", "UACC-62": 148, "WM1745": 82.8, "SK-MEL-30": 129, "IPC-298": 69.8, "G-361": 82.2}
{"second drug": "TCS401", "UACC-62": 93.3, "WM1745": 124, "SK-MEL-30": 86.1, "IPC-298": 49.0, "G-361": 43.3}
{"second drug": "docetaxel", "UACC-62": 160, "WM1745": 187, "SK-MEL-30": 275, "IPC-298": 596, "G-361": 664}
{"second drug": "indole-3-carbinol", "UACC-62": 112, "WM1745": 98.1, "SK-MEL-30": 96.7, "IPC-298": 63.7, "G-361": 90.8}
{"second drug": "erlotinib", "UACC-62": 136, "WM1745": 153, "SK-MEL-30": 114, "IPC-298": 328, "G-361": 147}
{"second drug": "LFM-A13", "UACC-62": 70.5, "WM1745": 97.9, "SK-MEL-30": 84.0, "IPC-298": 83.1, "G-361": 69.9}
{"second drug": "nilotinib", "UACC-62": 126, "WM1745": 64.7, "SK-MEL-30": 38.3, "IPC-298": 136, "G-361": 113}
{"second drug": "decitabine", "UACC-62": 160, "WM1745": 62.2, "SK-MEL-30": 82.4, "IPC-298": 89.0, "G-361": 115}
{"second drug": "AZD7762", "UACC-62": 110, "WM1745": 112, "SK-MEL-30": 410, "IPC-298": 113, "G-361": 152}
{"second drug": "NVP-BEZ235", "UACC-62": 156, "WM1745": 160, "SK-MEL-30": 71.9, "IPC-298": 55.3, "G-361": 79.1}
{"second drug": "T0901317", "UACC-62": 245, "WM1745": 119, "SK-MEL-30": 116, "IPC-298": 25.7, "G-361": 217}
{"second drug": "cisplatin", "UACC-62": 73.3, "WM1745": 111, "SK-MEL-30": 77.9, "IPC-298": 80.4, "G-361": 168}
{"second drug": "NVP-TAE684", "UACC-62": 168, "WM1745": 164, "SK-MEL-30": 53.0, "IPC-298": 74.3, "G-361": 44.0}
{"second drug": "AS-252424", "UACC-62": 41.3, "WM1745": 120, "SK-MEL-30": 72.7, "IPC-298": 102, "G-361": 73.8}
{"second drug": "GW0742", "UACC-62": 106, "WM1745": 122, "SK-MEL-30": 99.6, "IPC-298": 91.3, "G-361": 69.8}
{"second drug": "YM155", "UACC-62": 139, "WM1745": 79.8, "SK-MEL-30": 145, "IPC-298": 87.6, "G-361": 215}

Some entries from above, unchanged:

Second drug,UACC-62,WM1745,SK-MEL-30,IPC-298,G-361
GW9662,314,141,111,49.3,120
NVP-BEZ235,156,160,71.9,55.3,79.1
GSK0660,122,116,60.8,138,143